Laboratory results published in PubChem BioAssay AID2685 (National Center for Advancing Translational Sciences (NCATS), 2010).
This is one part of the list. The main result of the screen is listed elsewhere. These columns were measured beside it and carry no call. Most of these compounds were active or inconclusive in the main read-out, so they are no random draw. The note in brackets gives the kind of curve behind each potency; many fits are weak.

Experiment: qHTS Assay for Lipid Storage Modulators in Drosophila S3 Cells;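 on cell number change: cells counted by Cell Tracker Red CMTPX staining in the red channel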
Details: BODIPY lipid droplet fluorescence, 18-24 h; for cell number change: measured here: cell count max response, cells fed with added oleic acid
How it was run: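 Laser-scanning cytometry quantifies lipid droplet accumulation (500–530 nm total intensity; droplet/cell object ratio) in oleic acid-fed (400 uM added) Drosophila S3 cells treated with a concentration series. 20 uM Triacsin C defined 100% inhibition.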

[1] = measured here: lipid fluorescence (Fed channel) AC50, cells fed with added oleic acid
[2] = measured here: cell number channel AC50, cells fed with added oleic acid

| SMILES | cell number change [%] | AC50 [1] | AC50 [2] |
| --- | --- | --- | --- |
| C/C(N)=C(/C#N)C(=O)COc1ncnc2ccc(Br)cc12 | 23.5 | 3.26 µM [rising, partial curve] | – |
| O=C(NCCc1ccccc1)C(=O)N/N=C/c1ccc2c(c1)OCO2 | – | – | 0.731 µM [falling, full curve, poor fit] |
| CCOc1ccc(C(=O)NC2CC3CCCC(C2)N3CC(C)C)cc1 (stereo unspecified) | -39.8 | – | 4.61 µM [falling, full curve, poor fit] |
| Cc1oc(-c2ccccc2Cl)nc1CN1CCCN(C(=O)c2ccco2)CC1 | -1.67 | 0.0058 µM [falling, full curve, poor fit] | – |
| COCCNC(=S)N(CCN(C)C)Cc1cc2cc3c(cc2[nH]c1=O)OCO3 | 6.93 | 29.1 µM [rising, partial curve, poor fit] | – |
| CC(C)CN(C(=O)CSc1nc(-c2ccccc2)cn1N)c1c(N)n(Cc2ccccc2)c(=O)[nH]c1=O | 22.2 | 13 µM [rising, partial curve] | – |
| CCC(C)Nc1ncnc2c1cnn2Cc1ccc(Cl)cc1 (stereo unspecified) | 1.63 | 0.164 µM [rising, full curve, poor fit] | 1.03 µM [falling, full curve] |
| Cc1nn(C)c(C)c1-c1c(C#N)c(N)nc2c1CCCCCC2 | 13.3 | 9.2 µM [rising, partial curve, poor fit] | – |
| CN(C)c1nc(-c2ccccc2)c2cc(Cl)ccc2n1 | -1.53 | 6.51 µM [falling, partial curve] | – |
| COCCn1c(=O)[nH]c2cc(C(=O)NCCCN3CCN(c4ccc(F)cc4)CC3)ccc2c1=O | -3.75 | 29.1 µM [falling, single point] | – |
| COC(=O)Cc1ccc(OC(=O)CCS(=O)(=O)c2ccc(Cl)cc2)cc1 | -23.8 | 0.651 µM [falling, full curve, poor fit] | – |
| COc1ccc(S(=O)(=O)N2CCOC2CNC(=O)C(=O)NCc2cccnc2)cc1OC (stereo unspecified) | 20.1 | 11.6 µM [rising, partial curve] | – |
| CC(C)CC(=O)NC(=S)Nc1ccccc1C(F)(F)F | -0.987 | 0.291 µM [falling, partial curve, poor fit] | – |
| Cc1nc2ccccn2c1C(=O)NNC(=O)Nc1cccc(C(F)(F)F)c1 | – | 6.51 µM [falling, single point] | – |
| CCOc1ccccc1C(=O)N(C)CC(=O)Nc1ccc(OC)cc1 | 25 | 29.1 µM [rising, single point] | – |
| CCC(CC)NC(=O)c1cccc(Oc2ccccc2)c1 | 0.524 | – | 6.51 µM [falling, single point] |
| O=C(Nc1ccccc1)Nc1cccc(-c2nnco2)c1 | -7.04 | 29.1 µM [rising, single point] | – |
| COC(=O)c1sc2nc(C)nc(SCC(=O)Nc3sccc3C(N)=O)c2c1C | 22.2 | 0.0184 µM [rising, full curve, poor fit] | 0.00517 µM [rising, full curve, poor fit] |
| O=S(=O)(c1ccc(-c2cn3ccccc3n2)cc1)N1CCOCC1 | – | – | 0.461 µM [rising, full curve] |
| CCc1nc(Nc2ccc3nccnc3c2)c2oc3ccccc3c2n1 | -22 | 14.6 µM [falling, partial curve, poor fit] | – |

Entries of single compounds, looked up by structure. Values in the order: cell number change [%] | AC50 [1] | AC50 [2]
CC(C)CC(=O)NC(=S)Nc1ccccc1C(F)(F)F reads -0.987 | 0.291 µM [falling, partial curve, poor fit] | –
CN(C)c1nc(-c2ccccc2)c2cc(Cl)ccc2n1 reads -1.53 | 6.51 µM [falling, partial curve] | –
COC(=O)c1sc2nc(C)nc(SCC(=O)Nc3sccc3C(N)=O)c2c1C reads 22.2 | 0.0184 µM [rising, full curve, poor fit] | 0.00517 µM [rising, full curve, poor fit]
CCOc1ccccc1C(=O)N(C)CC(=O)Nc1ccc(OC)cc1 reads 25 | 29.1 µM [rising, single point] | –

Continued.

| SMILES | cell number change [%] | AC50 [1] | AC50 [2] |
| --- | --- | --- | --- |
| CC12CCC(C(=O)NCc3ccc(Cl)cc3)(OC1=O)C2(C)C (stereo unspecified) | -32.4 | – | 13 µM [falling, partial curve, poor fit] |
| CC(C)OCCCNC(=O)CN1C(=O)/C(=C/c2ccccc2F)Oc2ccccc21 | 29.6 | 0.82 µM [rising, full curve] | – |
| COc1ccc(NC(=O)[C@H](C)NC(=O)C2CCN(S(=O)(=O)c3ccc(OC)cc3)CC2)cc1 | 11.3 | 6.51 µM [falling, single point] | – |
| COc1ccccc1N1CCN(C(=O)CSc2nc3ccccc3nc2N2CCC(C)CC2)CC1 | 97.1 | – | 23.1 µM [rising, partial curve] |
| COc1ccc(N2C(=O)C3NN=C(C(=O)OCc4ccccc4)C3C2=O)cc1 (stereo unspecified) | 26.6 | – | 0.103 µM [rising, full curve, poor fit] |
| Cc1ccc(CN(C)c2nc(-c3cccnc3)nc3ccccc23)o1 | 11.7 | – | – |
| CCOc1cc(S(=O)(=O)NCCCN2CCOCC2)c(C)cc1C | -0.867 | – | – |
| CCOc1ccc(NC(=O)CN(C)C(=O)c2ccccc2SCC(=O)N2CCCC2)cc1OCC | -9.34 | 0.651 µM [rising, full curve, poor fit] | – |
| O=C(NC(=S)NCCO)c1sc2ccccc2c1Cl | -14.3 | 14.1 µM [falling, single point] | – |
| COc1cccc2c1cc1c(=O)n(CC(=O)NCc3ccccn3)nc(C)n12 | -12.1 | 29.1 µM [rising, partial curve] | – |
| COC(=O)CN1C(=O)COc2ccc(Cl)cc21 | -2.15 | 0.13 µM [rising, full curve, poor fit] | – |
| CSc1nc2c(c(=O)[nH]1)CCCC2 | -56.2 | – | 5.8 µM [falling, full curve] |
| COc1cccc2sc(N3CCN(C(=O)c4ccco4)CC3)nc12 | -25 | – | – |
| OCCn1c(-c2ccccc2)csc1=Nc1ccccc1 | 18.5 | 0.116 µM [rising, full curve] | – |
| COC(=O)c1sc(NC(=O)CC(C)C)c(C(=O)OC)c1C | 26.5 | 25.9 µM [rising, partial curve] | 0.259 µM [rising, full curve, poor fit] |
| Cc1ccc(-n2c(O)c(C=Nc3ccc4c(c3)OCO4)c3ccccc3c2=O)cc1C | -0.406 | 0.082 µM [falling, full curve, poor fit] | – |
| Cc1ccc(C(=O)Oc2ccccc2N2C(=O)C3C4CCC(C4)C3C2=O)cc1 (stereo unspecified) | -35.7 | 1.64 µM [falling, full curve, poor fit] | 1.84 µM [falling, full curve, poor fit] |
| Cc1ccc(-c2nnc(SCc3nc4ccccc4[nH]3)n2Cc2ccco2)cc1 | -33.3 | – | 29.1 µM [falling, single point] |
| Cc1ccccc1CN1CCCC(C(=O)Nc2ccc(-c3ccn[nH]3)cc2)C1 (stereo unspecified) | 30.5 | 16.4 µM [rising, partial curve] | – |
| Cc1ccc(C(=O)COC(=O)c2ccccc2NC(=O)c2ccccc2)cc1[N+](=O)[O-] | 3.07 | – | 6.51 µM [falling, single point] |

| SMILES | cell number change [%] | AC50 [1] | AC50 [2] |
| --- | --- | --- | --- |
| CC1=NN(C(N)=S)C(=O)C1N=Nc1ccc(Cl)cc1Cl (stereo unspecified) | -35.7 | – | 8.2 µM [falling, partial curve] |
| COc1cc2c(cc1OC)CN(C(=S)Nc1c(C)cccc1C)CC2 | -17.1 | 0.461 µM [falling, full curve, poor fit] | – |
| O=C(Nc1ccc2c(c1)OCCO2)c1ccc(S(=O)(=O)N2CCCCC2)cc1 | -4 | – | – |
| Cc1ccc(C2=N/C(=C/c3cccs3)C(=O)N2Nc2ccccc2)cc1 | – | 6.51 µM [rising, partial curve] | 4.11 µM [rising, partial curve, poor fit] |
| O=C(Nc1ccc(CN2CCOCC2)cc1)c1ccc(F)cc1 | -8.52 | 29.1 µM [falling, single point] | – |
| O=C(COc1ccccc1)NN1C(=O)CSC1=S | -43.4 | 29.1 µM [falling, single point] | – |
| O=C(Cn1cnc2c(nnn2Cc2ccc(F)cc2)c1=O)Nc1ccccc1 | 18.8 | 29.1 µM [falling, single point] | 0.58 µM [rising, partial curve, poor fit] |
| O=C(N/N=C/c1ccc([N+](=O)[O-])o1)c1ccc2c(c1)OCO2 | – | – | 6.51 µM [falling, partial curve, poor fit] |
| Nc1nnc(SCC(=O)Nc2ccc(F)c(Cl)c2)n1-c1ccccc1 | 5.21 | 1.46 µM [rising, full curve] | – |
| COc1cc2c(cc1OC)C(COc1cccc(C(F)(F)F)c1)NCC2 (stereo unspecified) | 8.4 | 6.51 µM [rising, single point] | – |
| CCOC(=O)c1[nH]c2ccc(C)cc2c1NC(=O)CN1CCCCC1 | 68.1 | 2.31 µM [rising, partial curve] | 18.4 µM [rising, partial curve] |
| Cn1c(NCc2cc(Br)ccc2O)nc2ccccc21 | -32.4 | – | 29.1 µM [falling, single point] |
| Cc1nc(N2CCCCC2)c2c(C)c(C(=O)Nc3ccccc3C(F)(F)F)sc2n1 | -16.5 | 29.1 µM [falling, single point] | – |
| CN1CCSc2ccc(C(=O)Nc3cccc(F)c3)cc21 | -2.45 | – | – |
| O=C1OCCC1Sc1nnc(-c2ccccc2)o1 (stereo unspecified) | -9.66 | 3.26 µM [falling, full curve, poor fit] | – |
| CCCC(C)NC(=O)COC(=O)c1ccc(Cl)c(S(N)(=O)=O)c1 (stereo unspecified) | -16.6 | – | – |
| Cc1c(CCO)c(=O)[nH]n1S(=O)(=O)c1cccc(C(F)(F)F)c1 | -32.4 | 2.24 µM [falling, full curve] | 3.55 µM [falling, full curve] |
| O=C(CN(C(=O)CNS(=O)(=O)c1ccccc1)c1ccc(Cl)cc1)NCC1CCCO1 (stereo unspecified) | -19.2 | 0.0058 µM [rising, full curve, poor fit] | – |
| Cc1nc2ccc(S(=O)(=O)NCC(=O)N3CCN(c4ccccc4)CC3)cc2s1 | -10.6 | – | – |
| COCCOC1CCN(C(=O)C2CCC(=O)N(CCc3ccccc3)C2)CC1 (stereo unspecified) | -9.83 | 6.51 µM [falling, single point] | – |
